The list is a part of this screen's results and no random one: it gathers tests that were run many times, whatever their T/C, doses with no T/C, and many T/C values between a quarter and a half above the control. Further doses and runs are listed elsewhere. T/C: endpoint of the treated group in % of that of the vehicle group. Some doses have a count of surviving animals in place of a T/C: the source holds a T/C of zero for them, seemingly a mark for toxic or unscored doses. Some survivor counts are full or nearly so, which does not show that the dose was tolerated: survival well below the control is almost never listed, so the zero probably covers shortened survival too. Survivors were counted at the toxicity check, usually on the fifth day, unless a day is given; later deaths do not show. Schedules are NCI's codes, read here as Q, the interval in days (D) or hours (H), X, the number of doses. Some entries were tested several times; the results are listed from low to high. Where survival is the endpoint, the PubChem record calls one and a half times the control and up active, and a quarter to a half above the control has no call in these data; cut-offs in other NCI protocols can differ. Some T/C values are followed by the survivors on the day toxicity was checked, most often the fifth; where none is given, no animal had died by that day. Signs of the kind (2×) say how often a value occurs here.
System: AKR/Lw mice, AKR lymphoma ip, median survival T/C
Assay: NCI In Vivo Anticancer Drug Screen. Data for tumor model Lymphoma AKR (Transplanted) (intraperitoneal) in AKR/Lw mice
Conditions: T/C endpoint: median survival time, higher T/C = longer survival
Description: The antitumor activity of compounds was measured in mice bearing transplantable tumors. Survival or tumor size were measured and the results are expressed as the measurement made in the treated group (T) divided by the measurement made in the vehicle treated control group (C). The tumor model used in this assay is Lymphoma AKR (Transplanted) (intraperitoneal) in AKR/Lw mice

[1] = dose: 10.0 mg/kg/injection, schedule: Q01DX009 (ip), vehicle: saline
[2] = dose: 12.5 mg/kg/injection, schedule: Q01DX009 (ip), vehicle: saline
[3] = dose: 15.0 mg/kg/injection, schedule: Q01DX009 (ip), vehicle: saline
[4] = dose: 25.0 mg/kg/injection, schedule: Q01DX009 (ip), vehicle: saline
[5] = dose: 40.0 mg/kg/injection, schedule: Q01DX009 (ip), vehicle: saline
[6] = dose: 50.0 mg/kg/injection, schedule: Q01DX009 (ip), vehicle: saline
[7] = dose: 50.0 mg/kg/injection, schedule: Q04DX003 (ip), vehicle: saline
[8] = dose: 100.0 mg/kg/injection, schedule: Q01DX001 (ip), vehicle: saline
[9] = dose: 100.0 mg/kg/injection, schedule: Q01DX009 (ip), vehicle: saline
[10] = dose: 100.0 mg/kg/injection, schedule: Q04DX003 (ip), vehicle: saline
[11] = dose: 200.0 mg/kg/injection, schedule: Q01DX001 (ip), vehicle: saline
[12] = dose: 200.0 mg/kg/injection, schedule: Q04DX003 (ip), vehicle: saline
[13] = dose: 300.0 mg/kg/injection, schedule: Q01DX001 (ip), vehicle: saline
[14] = dose: 400.0 mg/kg/injection, schedule: Q01DX001 (ip), vehicle: saline
[15] = dose: 400.0 mg/kg/injection, schedule: Q04DX003 (ip), vehicle: saline
[16] = dose: 600.0 mg/kg/injection, schedule: Q01DX001 (ip), vehicle: saline
[17] = dose: 12.5 mg/kg/injection, schedule: Q04DX003 (ip), vehicle: saline
[18] = dose: 20.0 mg/kg/injection, schedule: Q01DX009 (ip), vehicle: saline
[19] = dose: 75.0 mg/kg/injection, schedule: Q04DX003 (ip), vehicle: saline

Compound: CC(CN1CC(=O)NC(=O)C1)N1CC(=O)NC(=O)C1 (centres undefined)
- T/C (dose: 1.0 mg/kg/injection, schedule: Q01DX009 (ip), vehicle: saline): 131 % of control [9 of 10 alive]
- T/C (dose: 6.2 mg/kg/injection, schedule: Q01DX009 (ip), vehicle: saline): 110, 113, 116, 120 % of control
- T/C [1]: 133 and 140 % of control
- T/C [2]: 88, 120 (2×), 131, 133, 147 % of control
- T/C [3]: 131 % of control [9 of 10 alive]
- survivor count [3]: 9 of 10
- T/C [4]: 113, 123, 129 [9 of 10 alive], 130, 134, 135 % of control
- survivor count [4]: 9 of 10 and 10 of 10
- survivor count (dose: 35.0 mg/kg/injection, schedule: Q01DX009 (ip), vehicle: saline): 8 of 10
- T/C [5]: 141 % of control
- T/C [6]: 105, 136, 141, 158 % of control
- survivor count [6]: 10 of 10
- T/C [7]: 128 % of control
- T/C [8]: 94, 106, 110 [9 of 10 alive], 117 % of control
- T/C [9]: 128 and 150 % of control
- survivor count [9]: 10 of 10
- T/C [10]: 89 [7 of 10 alive], 97, 104, 105, 122 % of control
- T/C (dose: 150.0 mg/kg/injection, schedule: Q01DX001 (ip), vehicle: saline): 106, 116, 117, 122 % of control
- T/C [11]: 93, 111, 121, 126 % of control
- survivor count (dose: 200.0 mg/kg/injection, schedule: Q01DX009 (ip), vehicle: saline): 10 of 10
- T/C [12]: 91, 107, 120, 133, 197 % of control
- T/C [13]: 116, 118, 120, 129 % of control
- T/C (dose: 300.0 mg/kg/injection, schedule: Q01DX001 (ip), vehicle: water): 127 % of control
- T/C [14]: 105 [8 of 10 alive], 106, 182 % of control
- survivor count [14]: 9 of 10
- T/C [15]: 89 [9 of 10 alive], 100, 129 % of control
- survivor count [15]: 8 of 10 and 9 of 10
- T/C [16]: 87 [7 of 10 alive] and 131 % of control
- survivor count [16]: 3 of 10, 8 of 10, 9 of 10
- survivor count (dose: 700.0 mg/kg/injection, schedule: Q01DX001 (ip), vehicle: saline): 10 of 10
- survivor count (dose: 800.0 mg/kg/injection, schedule: Q01DX001 (ip), vehicle: saline): 5 of 10

Compound: CO[C@H]1/C=C/O[C@@]2(C)Oc3c(C)c(O)c4c(O)c(c(/C=N/N5C(C)CN(Cc6ccccc6)CC5C)c(O)c4c3C2=O)NC(=O)/C(C)=C\C=C\[C@H](C)[C@H](O)[C@@H](C)[C@@H](O)[C@@H](C)[C@H](OC(C)=O)[C@@H]1C (some centres undefined)
- survivor count (dose: 12.5 mg/kg/injection, schedule: Q01DX009 (ip), vehicle: other): 7 of 10
- survivor count (dose: 25.0 mg/kg/injection, schedule: Q01DX009 (ip), vehicle: other): 6 of 10
- survivor count (dose: 50.0 mg/kg/injection, schedule: Q01DX009 (ip), vehicle: other): 7 of 10
- survivor count (dose: 100.0 mg/kg/injection, schedule: Q01DX009 (ip), vehicle: other): 7 of 10
- survivor count (dose: 200.0 mg/kg/injection, schedule: Q01DX009 (ip), vehicle: other): 0 of 10
- survivor count (dose: 400.0 mg/kg/injection, schedule: Q01DX009 (ip), vehicle: other): 0 of 10

Compound: CC1(C)N=C(N)N=C(N)N1c1cc(Cl)ccc1Cl
- survivor count [8]: 6 of 10
- survivor count [11]: 0 of 10
- survivor count [14]: 0 of 10

Compound: CC[N+]1=NC2CCCC(C2)C1 (centres undefined)
- survivor count [14]: 4 of 10

Compound: COc1ccc(CCN2C(=O)CSC2=S)cc1OC
- survivor count (dose: 200.0 mg/kg/injection, schedule: Q01DX001 (ip), vehicle: Klucel (hydroxypropylcellulose) (HPC)): 10 of 10

Compound: O=C(O)/C=C/C(=O)Nc1cccc(Oc2ccc([N+](=O)[O-])cc2[N+](=O)[O-])c1
- survivor count [14]: 8 of 10

Compound: CN(C)C(=O)c1cccc(COc2ccc(N3C(N)=NC(N)=NC3(C)C)cc2Cl)c1
- T/C (dose: 2.5 mg/kg/injection, schedule: Q01DX009 (ip), vehicle: saline): 94, 131 [9 of 10 alive], 142, 143 % of control
- survivor count (dose: 3.1 mg/kg/injection, schedule: Q01DX005 (ip), vehicle: saline): 4 of 10
- T/C (dose: 3.1 mg/kg/injection, schedule: Q04DX003 (ip), vehicle: saline): 141 % of control
- T/C (dose: 5.0 mg/kg/injection, schedule: Q01DX009 (ip), vehicle: saline): 112, 121 [9 of 10 alive], 129, 133 % of control
- survivor count (dose: 6.2 mg/kg/injection, schedule: Q01DX005 (ip), vehicle: saline): 4 of 10
- T/C [1]: 121, 133, 136, 150 % of control
- survivor count [1]: 10 of 10
- survivor count (dose: 12.5 mg/kg/injection, schedule: Q01DX005 (ip), vehicle: saline): 4 of 10
- T/C [2]: 97 [9 of 10 alive], 100, 111, 121, 128 % of control
- T/C [17]: 105, 167, 169 % of control
- survivor count [17]: 5 of 10
- T/C [18]: 128 % of control
- survivor count [18]: 10 of 10
- survivor count (dose: 25.0 mg/kg/injection, schedule: Q01DX005 (ip), vehicle: saline): 10 of 10
- T/C [4]: 97 [8 of 10 alive], 97 [9 of 10 alive], 119 [9 of 10 alive], 157 % of control
- survivor count [4]: 5 of 10
- T/C (dose: 25.0 mg/kg/injection, schedule: Q04DX003 (ip), vehicle: saline): 100 [7 of 10 alive], 102 (2×), 105 [9 of 10 alive], 117, 144, 161 % of control
- survivor count (dose: 30.0 mg/kg/injection, schedule: Q01DX009 (ip), vehicle: saline): 10 of 10
- survivor count [5]: 10 of 10
- T/C (dose: 50.0 mg/kg/injection, schedule: Q01DX001 (ip), vehicle: saline): 103, 104, 111 [8 of 10 alive], 115 % of control
- survivor count (dose: 50.0 mg/kg/injection, schedule: Q01DX005 (ip), vehicle: saline): 10 of 10
- survivor count [6]: 5 of 10 and 10 of 10
- T/C [7]: 100 [8 of 10 alive], 105, 118, 120 [9 of 10 alive], 133 % of control
- survivor count [7]: 6 of 10 and 9 of 10
- T/C [19]: 116, 150 [9 of 10 alive], 155 % of control [8 of 10 alive]
- survivor count [19]: 1 of 10, 6 of 10, 8 of 10
- T/C [8]: 100 and 118 % of control [7 of 10 alive]
- survivor count [8]: 1 of 10
- survivor count [10]: 0 of 10, 3 of 10, 4 of 10, 10 of 10
- survivor count (dose: 150.0 mg/kg/injection, schedule: Q04DX003 (ip), vehicle: saline): 4 of 10
- T/C [11]: 106 and 118 % of control [9 of 10 alive]
- survivor count [11]: 0 of 10
- survivor count [12]: 0 of 10 and 3 of 10
- survivor count [13]: 0 of 10
- survivor count (dose: 300.0 mg/kg/injection, schedule: Q04DX003 (ip), vehicle: saline): 5 of 10
- survivor count [14]: 0 of 10
- survivor count [16]: 0 of 10

Compound: CCOC(=O)CCCSCCCC(=O)OCC
- survivor count [8]: 10 of 10

Compound: COc1cc([C@@H]2c3cc4c(cc3[C@@H](OC3OC5COC(C)OC5C(O)C3O)[C@H]3COC(=O)[C@H]23)OCO4)cc(OC)c1O (some centres undefined)
- survivor count (dose: 10.0 mg/kg/injection, schedule: Q01DX009 (ip), vehicle: Klucel (hydroxypropylcellulose) (HPC)): 9 of 10
- survivor count (dose: 20.0 mg/kg/injection, schedule: Q01DX009 (ip), vehicle: Klucel (hydroxypropylcellulose) (HPC)): 10 of 10
- survivor count (dose: 40.0 mg/kg/injection, schedule: Q01DX009 (ip), vehicle: Klucel (hydroxypropylcellulose) (HPC)): 2 of 10
